Results as given in the supplement of paper PMC10849652.
The other results are listed elsewhere or left out.

The chains behind the UniProt entries cited, without tags or fusion partners. Where a name states a change or a piece, a line headed by the entry shows the natural chain unless it says otherwise.
UniProt Q6VVX0: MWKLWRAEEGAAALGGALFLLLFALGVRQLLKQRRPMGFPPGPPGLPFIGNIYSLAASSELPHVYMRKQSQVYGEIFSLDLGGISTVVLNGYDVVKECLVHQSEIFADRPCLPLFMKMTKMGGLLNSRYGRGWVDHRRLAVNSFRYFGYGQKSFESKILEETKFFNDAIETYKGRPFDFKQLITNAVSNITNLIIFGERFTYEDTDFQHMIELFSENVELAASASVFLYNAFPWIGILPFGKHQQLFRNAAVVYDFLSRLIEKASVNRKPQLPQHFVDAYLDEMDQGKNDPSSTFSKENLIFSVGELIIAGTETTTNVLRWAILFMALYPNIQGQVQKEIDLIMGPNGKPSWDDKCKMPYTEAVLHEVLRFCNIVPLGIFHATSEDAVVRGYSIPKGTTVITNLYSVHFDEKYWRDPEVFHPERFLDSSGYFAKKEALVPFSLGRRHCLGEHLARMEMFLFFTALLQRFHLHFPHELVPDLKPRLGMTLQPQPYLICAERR
UniProt Q9H9R9: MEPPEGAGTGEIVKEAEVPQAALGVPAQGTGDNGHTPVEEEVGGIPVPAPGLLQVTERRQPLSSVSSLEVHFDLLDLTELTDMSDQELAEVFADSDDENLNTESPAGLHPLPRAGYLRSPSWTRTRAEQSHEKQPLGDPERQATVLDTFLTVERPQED
UniProt O95476: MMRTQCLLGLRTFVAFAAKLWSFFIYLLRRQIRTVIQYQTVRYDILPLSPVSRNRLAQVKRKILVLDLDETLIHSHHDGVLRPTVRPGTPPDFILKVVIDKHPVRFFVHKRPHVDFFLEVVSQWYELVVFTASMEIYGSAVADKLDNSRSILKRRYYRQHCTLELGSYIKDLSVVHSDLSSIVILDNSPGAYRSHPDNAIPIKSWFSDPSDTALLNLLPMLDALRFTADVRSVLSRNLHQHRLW
UniProt P49447: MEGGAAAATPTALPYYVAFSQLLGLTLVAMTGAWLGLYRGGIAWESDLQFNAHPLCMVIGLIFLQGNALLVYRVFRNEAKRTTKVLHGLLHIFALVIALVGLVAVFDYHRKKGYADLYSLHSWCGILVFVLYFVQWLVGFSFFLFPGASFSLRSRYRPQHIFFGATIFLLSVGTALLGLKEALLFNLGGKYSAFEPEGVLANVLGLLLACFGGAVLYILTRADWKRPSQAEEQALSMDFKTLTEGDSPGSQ
UniProt Q14999: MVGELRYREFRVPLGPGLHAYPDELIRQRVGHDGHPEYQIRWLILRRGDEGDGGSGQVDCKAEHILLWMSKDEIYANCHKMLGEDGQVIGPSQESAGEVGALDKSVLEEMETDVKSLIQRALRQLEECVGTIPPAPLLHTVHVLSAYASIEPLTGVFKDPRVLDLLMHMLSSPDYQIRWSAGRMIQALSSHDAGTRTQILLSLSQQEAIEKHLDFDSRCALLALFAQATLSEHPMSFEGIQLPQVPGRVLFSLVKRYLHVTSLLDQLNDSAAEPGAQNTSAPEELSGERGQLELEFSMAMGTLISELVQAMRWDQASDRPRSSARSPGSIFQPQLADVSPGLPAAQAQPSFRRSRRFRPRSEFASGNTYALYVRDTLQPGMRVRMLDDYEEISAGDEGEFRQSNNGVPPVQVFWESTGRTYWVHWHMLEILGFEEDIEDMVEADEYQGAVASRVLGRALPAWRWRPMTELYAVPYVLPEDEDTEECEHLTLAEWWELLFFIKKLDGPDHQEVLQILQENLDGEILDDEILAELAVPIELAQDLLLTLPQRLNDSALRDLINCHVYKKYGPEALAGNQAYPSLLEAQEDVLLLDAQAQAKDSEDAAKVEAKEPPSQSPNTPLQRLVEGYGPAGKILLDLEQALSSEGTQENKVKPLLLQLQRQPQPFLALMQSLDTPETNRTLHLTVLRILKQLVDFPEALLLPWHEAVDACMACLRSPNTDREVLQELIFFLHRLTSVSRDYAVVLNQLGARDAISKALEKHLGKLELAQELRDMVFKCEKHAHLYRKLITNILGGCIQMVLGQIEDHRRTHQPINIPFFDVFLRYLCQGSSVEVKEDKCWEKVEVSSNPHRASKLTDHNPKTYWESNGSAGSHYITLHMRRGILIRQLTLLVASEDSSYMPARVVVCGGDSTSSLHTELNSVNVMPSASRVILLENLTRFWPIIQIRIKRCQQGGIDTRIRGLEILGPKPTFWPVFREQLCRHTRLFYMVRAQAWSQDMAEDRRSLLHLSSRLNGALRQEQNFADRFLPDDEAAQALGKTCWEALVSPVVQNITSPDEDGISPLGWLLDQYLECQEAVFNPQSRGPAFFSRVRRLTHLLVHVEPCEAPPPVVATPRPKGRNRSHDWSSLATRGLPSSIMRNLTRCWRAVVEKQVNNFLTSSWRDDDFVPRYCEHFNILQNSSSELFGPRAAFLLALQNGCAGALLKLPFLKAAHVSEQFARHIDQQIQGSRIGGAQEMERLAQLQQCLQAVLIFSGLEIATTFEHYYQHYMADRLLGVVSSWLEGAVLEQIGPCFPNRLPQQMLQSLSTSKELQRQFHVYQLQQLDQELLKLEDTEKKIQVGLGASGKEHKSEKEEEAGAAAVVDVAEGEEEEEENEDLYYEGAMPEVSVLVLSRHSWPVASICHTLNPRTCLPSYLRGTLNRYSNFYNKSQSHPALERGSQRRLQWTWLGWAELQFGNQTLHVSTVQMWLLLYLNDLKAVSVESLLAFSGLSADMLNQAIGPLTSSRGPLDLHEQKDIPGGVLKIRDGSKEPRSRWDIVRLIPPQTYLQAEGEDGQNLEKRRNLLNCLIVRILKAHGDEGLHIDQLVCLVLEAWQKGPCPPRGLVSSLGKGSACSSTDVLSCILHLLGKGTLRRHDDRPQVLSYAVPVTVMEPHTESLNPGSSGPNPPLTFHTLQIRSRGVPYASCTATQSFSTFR
UniProt Q9UBX1: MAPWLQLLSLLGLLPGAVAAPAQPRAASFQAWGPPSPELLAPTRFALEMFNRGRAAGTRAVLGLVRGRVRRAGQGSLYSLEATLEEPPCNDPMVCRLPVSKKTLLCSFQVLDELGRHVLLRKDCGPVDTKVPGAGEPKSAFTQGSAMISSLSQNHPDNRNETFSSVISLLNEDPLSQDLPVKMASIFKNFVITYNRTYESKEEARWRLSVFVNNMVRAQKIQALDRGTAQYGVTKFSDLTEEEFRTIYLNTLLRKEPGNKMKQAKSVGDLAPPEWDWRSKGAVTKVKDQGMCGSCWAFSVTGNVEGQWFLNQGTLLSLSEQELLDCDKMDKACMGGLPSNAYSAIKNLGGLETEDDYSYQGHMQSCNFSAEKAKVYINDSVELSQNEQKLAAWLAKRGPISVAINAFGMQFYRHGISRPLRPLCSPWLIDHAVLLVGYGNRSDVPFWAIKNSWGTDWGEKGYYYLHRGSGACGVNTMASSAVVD
UniProt Q9BWK5: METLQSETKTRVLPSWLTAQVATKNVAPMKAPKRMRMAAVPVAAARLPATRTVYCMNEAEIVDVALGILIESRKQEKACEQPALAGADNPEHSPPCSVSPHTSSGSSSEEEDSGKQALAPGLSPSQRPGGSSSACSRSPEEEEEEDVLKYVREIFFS
UniProt Q99418: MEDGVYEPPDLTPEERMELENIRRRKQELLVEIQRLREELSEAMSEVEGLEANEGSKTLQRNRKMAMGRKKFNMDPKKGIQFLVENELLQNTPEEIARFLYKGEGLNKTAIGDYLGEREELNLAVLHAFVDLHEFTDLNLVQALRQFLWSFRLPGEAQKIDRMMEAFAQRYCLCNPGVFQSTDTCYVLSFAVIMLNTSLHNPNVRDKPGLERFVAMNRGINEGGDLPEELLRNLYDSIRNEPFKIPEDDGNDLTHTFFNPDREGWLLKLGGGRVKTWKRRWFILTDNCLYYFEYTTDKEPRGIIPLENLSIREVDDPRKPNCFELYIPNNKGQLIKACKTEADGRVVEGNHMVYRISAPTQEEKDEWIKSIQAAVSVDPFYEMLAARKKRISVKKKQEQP
UniProt Q53TN4: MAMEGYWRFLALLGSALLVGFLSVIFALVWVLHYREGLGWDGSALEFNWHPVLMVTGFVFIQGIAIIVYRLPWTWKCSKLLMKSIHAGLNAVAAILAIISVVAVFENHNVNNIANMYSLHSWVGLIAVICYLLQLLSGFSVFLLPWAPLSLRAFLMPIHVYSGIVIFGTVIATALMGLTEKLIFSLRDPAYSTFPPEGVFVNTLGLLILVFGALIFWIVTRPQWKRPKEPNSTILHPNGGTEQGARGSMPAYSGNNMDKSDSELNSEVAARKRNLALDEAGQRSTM
UniProt Q5H9S7: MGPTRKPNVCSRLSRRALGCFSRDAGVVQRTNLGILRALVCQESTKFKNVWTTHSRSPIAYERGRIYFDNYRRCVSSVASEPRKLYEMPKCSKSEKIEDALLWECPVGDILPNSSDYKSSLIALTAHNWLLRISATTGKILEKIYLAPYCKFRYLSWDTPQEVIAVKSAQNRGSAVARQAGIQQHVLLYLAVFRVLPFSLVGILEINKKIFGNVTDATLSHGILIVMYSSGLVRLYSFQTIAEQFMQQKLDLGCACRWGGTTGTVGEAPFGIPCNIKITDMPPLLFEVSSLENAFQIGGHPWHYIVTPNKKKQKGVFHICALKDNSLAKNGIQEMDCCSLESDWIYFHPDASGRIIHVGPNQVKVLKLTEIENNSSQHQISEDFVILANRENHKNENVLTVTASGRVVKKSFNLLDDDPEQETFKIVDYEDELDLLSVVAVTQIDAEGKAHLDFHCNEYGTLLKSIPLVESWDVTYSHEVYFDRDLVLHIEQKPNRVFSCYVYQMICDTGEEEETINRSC
UniProt Q8N8Z6: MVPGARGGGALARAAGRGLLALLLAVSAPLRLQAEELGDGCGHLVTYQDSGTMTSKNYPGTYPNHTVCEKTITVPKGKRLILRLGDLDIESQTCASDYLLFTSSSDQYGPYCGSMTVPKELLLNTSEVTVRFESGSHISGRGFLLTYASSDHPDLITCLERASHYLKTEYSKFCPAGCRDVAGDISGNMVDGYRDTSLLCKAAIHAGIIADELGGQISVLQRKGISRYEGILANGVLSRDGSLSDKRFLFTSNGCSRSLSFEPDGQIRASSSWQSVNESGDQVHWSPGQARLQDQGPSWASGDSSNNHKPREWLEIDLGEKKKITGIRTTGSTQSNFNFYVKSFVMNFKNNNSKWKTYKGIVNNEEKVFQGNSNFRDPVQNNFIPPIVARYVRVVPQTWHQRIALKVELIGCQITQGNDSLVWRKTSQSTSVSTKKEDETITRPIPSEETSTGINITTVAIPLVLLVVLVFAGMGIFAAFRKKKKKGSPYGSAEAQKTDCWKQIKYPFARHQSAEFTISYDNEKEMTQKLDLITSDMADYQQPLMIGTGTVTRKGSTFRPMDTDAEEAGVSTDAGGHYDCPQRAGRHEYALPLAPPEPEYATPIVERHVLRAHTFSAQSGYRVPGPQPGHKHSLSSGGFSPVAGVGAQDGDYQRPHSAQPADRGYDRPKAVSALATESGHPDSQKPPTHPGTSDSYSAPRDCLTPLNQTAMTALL
UniProt Q15828: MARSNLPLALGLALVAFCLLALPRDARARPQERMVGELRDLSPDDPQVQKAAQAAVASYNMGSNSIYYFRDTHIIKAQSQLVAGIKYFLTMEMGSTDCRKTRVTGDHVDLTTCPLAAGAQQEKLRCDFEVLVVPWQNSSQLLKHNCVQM
UniProt P01037: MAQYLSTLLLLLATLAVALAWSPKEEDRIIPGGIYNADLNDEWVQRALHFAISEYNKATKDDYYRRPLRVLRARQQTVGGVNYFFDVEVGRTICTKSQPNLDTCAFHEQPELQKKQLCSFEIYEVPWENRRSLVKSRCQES
UniProt Q9BTE7: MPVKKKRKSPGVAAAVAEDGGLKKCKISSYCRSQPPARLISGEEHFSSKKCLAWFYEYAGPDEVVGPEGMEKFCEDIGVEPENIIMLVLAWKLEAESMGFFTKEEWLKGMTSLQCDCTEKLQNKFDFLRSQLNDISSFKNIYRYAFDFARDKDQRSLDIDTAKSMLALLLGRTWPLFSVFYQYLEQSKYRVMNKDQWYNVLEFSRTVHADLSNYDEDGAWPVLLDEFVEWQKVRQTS
UniProt Q9NSA3: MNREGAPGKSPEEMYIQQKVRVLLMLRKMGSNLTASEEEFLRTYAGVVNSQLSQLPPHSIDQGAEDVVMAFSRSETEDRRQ
UniProt Q7LFL8: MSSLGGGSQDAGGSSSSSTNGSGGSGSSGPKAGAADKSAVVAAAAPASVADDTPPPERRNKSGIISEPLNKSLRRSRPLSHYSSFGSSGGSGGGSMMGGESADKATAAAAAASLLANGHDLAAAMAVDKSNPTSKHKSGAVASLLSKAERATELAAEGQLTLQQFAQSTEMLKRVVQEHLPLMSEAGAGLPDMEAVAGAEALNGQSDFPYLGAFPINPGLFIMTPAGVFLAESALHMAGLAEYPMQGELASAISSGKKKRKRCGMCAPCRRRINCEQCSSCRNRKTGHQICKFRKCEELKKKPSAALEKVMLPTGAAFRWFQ

Assays:
Test in all cases: log2 fold change, soluble protein after heating vs DMSO (PISA); higher = thermal stabilisation; K562 cells, 10 uM, 30 min; active = over 0.2 and 3.5 SD of the protein, either way, in both replicates (recomputed)
[1] = compound: CCN(CCCOc1ccc2c(Nc3cc(CC(=O)Nc4cccc(F)c4)[nH]n3)ncnc2c1)CCOP(=O)(O)O [barasertib]
Outline: (§1)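 K562 cells at 2×10^6 cells/mL were treated for 30 min with 10 μM compound, and aliquots were heated for 3 min over 48°C-58°C before pooling. Extraction used PBS with 0.5% NP-40 at 4°C, and soluble protein was the supernatant after 21,000xg for 90 min, measured by TMTpro 16plex LC-MS/MS with channel sums equalised. Thermal stability values, relative to control samples and from duplicates, are log2 fold changes.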

[2] = compound: CC[C@@H]1C(=O)N(C)c2cnc(Nc3ccc(C(=O)NC4CCN(C)CC4)cc3OC)nc2N1C1CCCC1
Outline: as §1

[3] = compound: CC[C@H](C)N1C=C(C2=C(C=C(C=C21)C3=CN=C(C=C3)N4CCNCC4)C(=O)NCC5=C(C=C(NC5=O)C)C)C
Outline: as §1

[4] = compound: CN(CCOC1=CC=C(C=C1)C[C@H]2C(=O)NC(=O)S2)C3=CC=CC=N3 (racemic) [rosiglitazone]
Outline: as §1

[5] = compound: CC1=C(C=C(C=C1)NC(=O)C2=CC(=CC=C2)C(C)(C)C#N)NC3=CC4=C(C=C3)N=CN(C4=O)C
Outline: as §1

[6] = compound: CCCCN(Cc1ccc(C(=O)NO)cc1)C(=O)Nc1ccccc1 [Nexturastat A]
Outline: as §1

[7] = compound: CCN(CC)Cc1ccc2cc(COC(=O)Nc3ccc(C(=O)NO)cc3)ccc2c1 [givinostat]
Outline: as §1

[8] = compound: CC[C@H](C)[C@@H](C(=O)N[C@@H]([C@@H](C)O)C(=O)N[C@@H](CC(C)C)C(=O)[C@]1(CO1)C)NC(=O)[C@H]([C@@H](C)CC)N(C)C(=O)C [epoxomicin]
Outline: as §1

[9] = compound: CCn1c(C(=O)N(C2CC2)C2CC2)cc2c3c(ncn3C)c(Nc3cc(C)n(C)n3)nc21
Outline: as §1

[10] = compound: CCCS(=O)(=O)Nc1ccc(F)c(C(=O)c2c[nH]c3ncc(-c4ccc(Cl)cc4)cc23)c1F [vemurafenib]
Outline: as §1

[11] = compound: CCn1cc(-c2ccnc3[nH]c(-c4cccc(CN(C)C)c4)cc23)c(-c2ccc(NC(=O)N(C)C)cc2)n1
Outline: as §1

[12] = compound: CN(C)CC(=O)Nc1ccc2[nH]c(=O)c3ccccc3c2c1
Outline: as §1

[13] = compound: CN1C2=C(C3=C1C(=O)N(N=C3)CC4=CC(=CC=C4)N)SC(=C2)S(=O)C
Outline: as §1

[14] = compound: CN1CCC(CNc2ccc3ncc(-c4cccc(OC(F)(F)F)c4)n3n2)CC1
Outline: as §1

[15] = compound: CC1=C(C=C(C=C1)NC(=O)C2=CC(=CC=C2)N(C)C)NC(=O)C3=CC=C(C=C3)O
Outline: as §1

[16] = compound: CC1=CC=C(C=C1)SC2=C3C=C(SC3=CN=C2)C(=O)N
Outline: as §1

[17] = compound: CC1=NC(=CC=C1)C2=C(N=C(N2)C(C)(C)C)C3=CC4=NC=CN=C4C=C3
Outline: as §1

[18] = compound: CCCS(=O)(=O)Nc1ccc(F)c(C(=O)c2c[nH]c3ncc(Cl)cc23)c1F
Outline: as §1

[19] = compound: CCCc1cc(C)[nH]c(=O)c1CNC(=O)c1cc(-c2ccnc(N3CCN(C)CC3)c2)cc2c1cnn2C(C)C
Outline: as §1

[20] = compound: CC[C@@H]1C(=O)N(C)c2cnc(Nc3ccc(C(=O)N[C@H]4CC[C@H](N5CCN(CC6CC6)CC5)CC4)cc3OC)nc2N1C(C)C [volasertib]
Outline: as §1

Measured: log2 fold change

CYP2R1 (UniProt Q6VVX0)
inactive: [1] -0.116 | [2] 0.211 | [3] 0.058 | [4] 0.001

DBNDD1 isoform 3 (UniProt Q9H9R9)
inactive: [5] 0.206 | [6] 0.037 | [7] 0.148 | [8] 0.03 | [9] -0.137

CTDNEP1 (UniProt O95476)
inactive: [5] -0.028 | [10] -0.019 | [7] -0.005 | [9] 0.11 | [11] 0.111 | [12] 0.087 | [13] -0.074 | [14] 0.168

Reprinted at random: 2 records from the list.
DBNDD1 isoform 3 (UniProt Q9H9R9)
inactive: [5] 0.206 | [6] 0.037 | [7] 0.148 | [8] 0.03 | [9] -0.137

CTDNEP1 (UniProt O95476)
inactive: [5] -0.028 | [10] -0.019 | [7] -0.005 | [9] 0.11 | [11] 0.111 | [12] 0.087 | [13] -0.074 | [14] 0.168

(cont.)

CYB561 (UniProt P49447)
inactive: [15] -0.015 | [16] 0.077 | [17] -0.054 | [10] 0.391 | [18] 0.001 | [19] -0.106 | [7] -0.004 | [1] -0.078 | [2] 0.157 | [20] -0.206 | [3] 0.129 | [9] 0.06 | [11] 0.01 | [12] 0.32 | [4] 0.071 | [13] -0.097 | [14] 0.118

CUL7 isoform 2 (UniProt Q14999)
inactive: [15] -0.125 | [16] -0.044 | [6] 0.084 | [18] 0.043 | [7] 0.32 | [20] -0.278 | [3] -0.287 | [8] -0.042 | [9] -0.116 | [11] -0.032 | [13] 0.092 | [14] 0.079

CTSF (UniProt Q9UBX1)
inactive: [6] -0.016 | [7] -0.004 | [8] -0.137 | [9] 0.153 | [11] 0.069 | [14] 0.044

DCBLD2 isoform 2 (UniProt Q96PD2)
inactive: [13] 0.178

CYREN isoform 4 (UniProt Q9BWK5)
inactive: [16] -0.059 | [17] 0.042 | [10] -0.069 | [18] 0 | [19] -0.001 | [1] -0.247 | [20] 0.186 | [11] -0.063 | [12] -0.228 | [4] -0.085 | [13] 0 | [14] 0.094

CYTH2 (UniProt Q99418)
inactive: [16] -0.038 | [17] -0.007 | [18] -0.016 | [19] -0.036 | [7] 0.007 | [1] 0.067 | [20] 0.042 | [9] -0.18 | [4] 0.042 | [13] 0.118

CYTH1 (UniProt Q15438)
inactive: [16] -0.096 | [6] 0.181 | [10] 0.066 | [18] -0.059 | [19] 0 | [2] -0.043 | [20] -0.056 | [8] 0.279 | [12] 0.077 | [13] -0.019

CYBRD1 (UniProt Q53TN4)
inactive: [15] 0 | [16] -0.023 | [17] 0.018 | [10] 0.002 | [18] -0.274 | [19] -0.053 | [7] 0.059 | [2] -0.023 | [20] 0.242 | [9] 0.173 | [11] -0.024 | [12] -0.147 | [13] 0.125 | [14] 0.136

CYP24A1 (UniProt Q07973)
inactive: [15] 0.051 | [16] -0.039 | [17] -0.306 | [10] -0.198 | [18] -0.057 | [19] -0.183 | [7] 0.233 | [1] -0.146 | [2] 0.252 | [20] 0.379 | [3] -0.209 | [11] 0.065 | [12] -0.175 | [13] 0.288 | [14] 0.198

DCAF17 (UniProt Q5H9S7)
inactive: [6] 0.059 | [10] 0.086 | [2] 0.039 | [8] -0.037 | [12] -0.014

DCBLD1 (UniProt Q8N8Z6)
inactive: [16] -0.392 | [6] 0.156 | [18] 0.046 | [20] -0.065 | [8] -0.106 | [13] -0.261

CST6 (UniProt Q15828)
inactive: [5] -0.301 | [6] 0.26 | [19] 0.077 | [2] 0.729 | [3] 0.411 | [8] 0.533

CST1 (UniProt P01037)
inactive: [5] -0.029 | [6] -0.074 | [10] 0.168 | [19] 0.052 | [1] 0.345 | [3] 0.23 | [8] 0.161 | [12] -0.065 | [4] 0.073 | [13] 0.199

DCUN1D5 (UniProt Q9BTE7)
inactive: [15] 0.098 | [17] -0.039 | [10] 0.098 | [19] -0.023 | [11] 0.043 | [12] 0.138 | [14] 0.04

CTNNBIP1 (UniProt Q9NSA3)
inactive: [19] 0.015 | [11] 0.094 | [13] -0.045 | [14] 0.113

CXXC5 (UniProt Q7LFL8)
inactive: [15] -0.056 | [6] 0.116 | [7] -0.083 | [8] 0.031 | [9] -0.057 | [13] 0.019

CYP4V2 (UniProt Q6ZWL3)
inactive: [15] -0.054 | [17] -0.06 | [6] 0.098 | [10] -0.1 | [7] -0.063 | [2] -0.086 | [8] -0.07 | [9] -0.009 | [11] 0.002 | [12] -0.04 | [13] -0.042 | [14] -0.175
